The source of these data is paper PMC7595586.

The chains behind the UniProt entries cited, without tags or fusion partners.
UniProt O42900: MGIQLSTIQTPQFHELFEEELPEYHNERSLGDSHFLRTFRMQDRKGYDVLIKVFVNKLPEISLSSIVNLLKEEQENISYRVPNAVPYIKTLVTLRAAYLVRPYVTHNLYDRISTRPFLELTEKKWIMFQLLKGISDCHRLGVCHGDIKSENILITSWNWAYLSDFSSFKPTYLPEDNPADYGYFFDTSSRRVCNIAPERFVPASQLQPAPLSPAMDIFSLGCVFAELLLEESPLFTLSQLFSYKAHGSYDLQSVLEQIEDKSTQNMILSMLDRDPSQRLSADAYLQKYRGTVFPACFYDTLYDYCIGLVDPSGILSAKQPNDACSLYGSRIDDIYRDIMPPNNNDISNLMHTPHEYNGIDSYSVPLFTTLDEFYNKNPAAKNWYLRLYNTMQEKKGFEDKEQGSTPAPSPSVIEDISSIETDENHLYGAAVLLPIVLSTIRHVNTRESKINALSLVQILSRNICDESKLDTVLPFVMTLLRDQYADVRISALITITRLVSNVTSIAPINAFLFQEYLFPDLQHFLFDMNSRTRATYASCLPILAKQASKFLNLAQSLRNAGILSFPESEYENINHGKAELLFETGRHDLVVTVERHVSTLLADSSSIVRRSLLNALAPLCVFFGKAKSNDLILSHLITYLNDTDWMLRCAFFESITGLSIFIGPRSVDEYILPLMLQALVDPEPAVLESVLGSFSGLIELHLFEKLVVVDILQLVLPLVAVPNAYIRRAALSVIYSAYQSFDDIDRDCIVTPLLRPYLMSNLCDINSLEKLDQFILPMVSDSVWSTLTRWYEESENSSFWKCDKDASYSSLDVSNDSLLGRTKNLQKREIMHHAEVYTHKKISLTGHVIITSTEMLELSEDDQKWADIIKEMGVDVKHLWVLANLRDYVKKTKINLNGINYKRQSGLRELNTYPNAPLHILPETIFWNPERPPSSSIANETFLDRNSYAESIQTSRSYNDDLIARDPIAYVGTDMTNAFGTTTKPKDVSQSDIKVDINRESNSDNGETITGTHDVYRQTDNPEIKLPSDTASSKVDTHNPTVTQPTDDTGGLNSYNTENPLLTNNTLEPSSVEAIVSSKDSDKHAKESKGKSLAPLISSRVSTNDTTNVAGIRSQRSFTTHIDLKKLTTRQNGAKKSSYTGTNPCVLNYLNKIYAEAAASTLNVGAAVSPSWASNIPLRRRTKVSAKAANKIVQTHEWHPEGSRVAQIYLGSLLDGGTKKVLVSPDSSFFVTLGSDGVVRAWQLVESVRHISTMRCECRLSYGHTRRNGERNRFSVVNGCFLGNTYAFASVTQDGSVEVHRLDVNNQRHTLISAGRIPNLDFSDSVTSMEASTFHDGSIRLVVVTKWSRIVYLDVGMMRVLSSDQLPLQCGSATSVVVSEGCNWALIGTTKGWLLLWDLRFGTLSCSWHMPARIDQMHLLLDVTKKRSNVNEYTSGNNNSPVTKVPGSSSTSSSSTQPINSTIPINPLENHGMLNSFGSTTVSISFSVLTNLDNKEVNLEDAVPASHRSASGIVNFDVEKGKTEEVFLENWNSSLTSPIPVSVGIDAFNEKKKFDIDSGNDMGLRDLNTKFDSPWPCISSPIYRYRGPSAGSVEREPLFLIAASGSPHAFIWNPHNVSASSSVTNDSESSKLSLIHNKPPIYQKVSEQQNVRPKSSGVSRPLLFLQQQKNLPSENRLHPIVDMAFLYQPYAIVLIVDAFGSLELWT

No constants are given. Whether binding was seen depends on the method and setting. Binding seen in cells or lysates may run through a third protein. These calls come from enrichment with a bait or labelling near it, and not all partners need be listed. For part of these data: A no says only that the protein was not detected with the bait.

What all share (assay): affinity purification with mass spectrometry; bait purified from S. pombe cells (approximately 1000–2000 OD600 units) harvested after 2 h of starvation; performed as described previously [43]
Experiment [1] has as its target T1, Atg38 (SPBC660.08), fission yeast (S. pombe) (UniProt O94427).
T1 sequence: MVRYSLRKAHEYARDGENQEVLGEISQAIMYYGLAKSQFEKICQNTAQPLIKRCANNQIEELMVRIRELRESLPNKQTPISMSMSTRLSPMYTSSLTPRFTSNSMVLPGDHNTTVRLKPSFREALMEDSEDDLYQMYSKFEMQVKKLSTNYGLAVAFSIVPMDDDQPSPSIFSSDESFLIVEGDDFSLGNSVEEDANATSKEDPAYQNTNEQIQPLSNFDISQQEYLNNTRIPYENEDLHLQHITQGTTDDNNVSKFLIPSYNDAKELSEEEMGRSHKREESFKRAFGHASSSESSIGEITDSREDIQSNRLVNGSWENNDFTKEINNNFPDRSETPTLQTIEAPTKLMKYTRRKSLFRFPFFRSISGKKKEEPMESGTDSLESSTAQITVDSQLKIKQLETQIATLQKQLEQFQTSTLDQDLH

Experiment [2] addresses T2, Atg14, fission yeast (S. pombe) (UniProt O42862).
T2 sequence: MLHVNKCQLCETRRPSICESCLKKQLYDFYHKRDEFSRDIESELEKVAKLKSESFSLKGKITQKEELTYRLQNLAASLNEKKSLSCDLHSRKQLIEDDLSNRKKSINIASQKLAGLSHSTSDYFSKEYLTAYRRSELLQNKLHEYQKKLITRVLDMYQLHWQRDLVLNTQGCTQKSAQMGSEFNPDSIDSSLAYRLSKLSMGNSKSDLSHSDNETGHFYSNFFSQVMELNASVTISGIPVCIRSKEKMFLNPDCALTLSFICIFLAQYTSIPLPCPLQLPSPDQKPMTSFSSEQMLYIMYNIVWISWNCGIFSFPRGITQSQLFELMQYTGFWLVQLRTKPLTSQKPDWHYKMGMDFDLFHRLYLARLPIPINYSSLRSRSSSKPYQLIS

Experiment [3] concerns the target T3, Atg6, fission yeast (S. pombe) (UniProt P87117).
T3 sequence: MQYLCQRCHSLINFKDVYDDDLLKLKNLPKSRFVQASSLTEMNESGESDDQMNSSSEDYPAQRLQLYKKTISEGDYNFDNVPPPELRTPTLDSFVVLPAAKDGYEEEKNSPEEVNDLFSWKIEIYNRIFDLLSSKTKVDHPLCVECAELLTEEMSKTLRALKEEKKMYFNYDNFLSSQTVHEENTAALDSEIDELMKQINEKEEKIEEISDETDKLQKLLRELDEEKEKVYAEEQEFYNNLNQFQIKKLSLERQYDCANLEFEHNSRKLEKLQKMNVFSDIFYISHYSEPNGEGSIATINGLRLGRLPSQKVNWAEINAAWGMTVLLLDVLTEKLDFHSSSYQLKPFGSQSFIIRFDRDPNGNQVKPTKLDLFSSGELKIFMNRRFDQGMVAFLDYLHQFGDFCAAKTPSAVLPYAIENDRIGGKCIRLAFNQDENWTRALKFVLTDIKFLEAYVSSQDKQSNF

For the molecule “Vps15, fission yeast (from UniProt O42900 1-1706)”, the binding entry in experiment [1] is “binds”.

B1: Atg38 (SPBC660.08), fission yeast (protein, UniProt O94427 1-424)
chain: MVRYSLRKAHEYARDGENQEVLGEISQAIMYYGLAKSQFEKICQNTAQPLIKRCANNQIEELMVRIRELRESLPNKQTPISMSMSTRLSPMYTSSLTPRFTSNSMVLPGDHNTTVRLKPSFREALMEDSEDDLYQMYSKFEMQVKKLSTNYGLAVAFSIVPMDDDQPSPSIFSSDESFLIVEGDDFSLGNSVEEDANATSKEDPAYQNTNEQIQPLSNFDISQQEYLNNTRIPYENEDLHLQHITQGTTDDNNVSKFLIPSYNDAKELSEEEMGRSHKREESFKRAFGHASSSESSIGEITDSREDIQSNRLVNGSWENNDFTKEINNNFPDRSETPTLQTIEAPTKLMKYTRRKSLFRFPFFRSISGKKKEEPMESGTDSLESSTAQITVDSQLKIKQLETQIATLQKQLEQFQTSTLDQDLH
For the molecule B1, the binding result in experiment [2] and in experiment [3] was “binds” each time.

B2: Vps38, fission yeast (protein, UniProt O60149 1-474)
chain: MSLELPGNYRLSRLKSIQIRNVQEIQNHSKFAINTTENLWKRDVQLKRAISEGTIRIFISLHVQSKKLPVYITETSGNANHIFYVDEKVTEKLQKYRHEEYFIVRTWCSSSSHAFKLHKEWKILRYDSNFRYIGNDPVFAVCHIRNGLLCEFNDGVYIYTTSQSSDIMRQTSFPKSASTYSIDRRKDGYTIQKITRILKLAECIDEMHIAKHEIRAHFQEEEFQQIRLMHKRMLLRDEKIDELAKLEHLWQKQINSITQMRTKFDKTKSWLSSKRNTLNKSKESLQKDEAEYVELANSLKTKVETNIEIRILMAHAIRMHVSHLSKIYPIQPSPGNHDEFTIRNLRLSFEPDKINNVEMAASIGFLAHLLQTLSKYLEKELAYPILCASSRSSILDTLTPDIPTRIFPLYPATRPIELFEHAIYLLNQDVNDFLETFGLPIDQSMDILRNFKKLLQFILSGQHLSFVQVTSTAP
B2: the binding result in experiment [1] is reported as “no binding”.

B3: Vps34, fission yeast (protein, UniProt P50520 1-801)
chain: MDRLVFSYCPSSKVTARFLVKFCFIEYQDSQEPCICTIQLFSGNESGSLMQKCFVSKIPNKSLLPTELSKISTHEWLDFGVTVSELSLNAKFVVSAWKPSFNDEEVYEFVGCTTYRLFDENNLLRQGLQKIPLQTSKEIKKYSPTSLELEQVKEINRLDGLLLKLQLGDVPSVNWLDDISFGKIKDFRSKHMSLVTIPILYLDFLQFSFPVVFQRSYYPKSENRVYYSSFDLELNLDSPAELKHRRLVRSQRNGPLDKDLKPNSKIRKELESILSYPPSEELSLEEKDLIWKFRFYLTRNKKAMTKFLKSVVWTDSSEVNQALSLLDSWTEIDIDDALELLSPSFVHPKVRAYAVSRLETASNEELLLYLLQLVQALRYDNPISSDERFQPSPLALFLVNRAISSPSIGNDLYWYLVVEIEDEPVSKLFSSVMFLFQKELSKSVEGRLIRETLSAQAKFVEKLLRISKSVQSFRGTRLKKIEYLKVLLEDHKYHLLDFHALPLPLDPSVNIVGIIPDACTVFKSTMQPLRLLFKCQDGSKYPIIFKNGDDLRQDQLVIQILTLMDKLLKKEKLDLHLKPYRILATGPTHGAVQFVPSKTLATILAEYHGSVLAYLRENNPDDGLNSANYGIDPVAMDNYVRSCAGYCVITYLLGVGDRHLDNLLITKDGHFFHADFGYILGRDPKLFSPAMKLSKEMVEGMGGYNSPFYQQFKSYCYTTFTALRKSSNLILNLFSLMVDANIPDIKFDKEKVVYKVKERFCLQMSESDAIKYFEQLINDSVSALFPQIIDRMHNLAQYMRS
Regarding B3, the binding result in experiment [1] is “binds”.

B4: Atg6, fission yeast (protein, UniProt P87117 1-464)
chain: MQYLCQRCHSLINFKDVYDDDLLKLKNLPKSRFVQASSLTEMNESGESDDQMNSSSEDYPAQRLQLYKKTISEGDYNFDNVPPPELRTPTLDSFVVLPAAKDGYEEEKNSPEEVNDLFSWKIEIYNRIFDLLSSKTKVDHPLCVECAELLTEEMSKTLRALKEEKKMYFNYDNFLSSQTVHEENTAALDSEIDELMKQINEKEEKIEEISDETDKLQKLLRELDEEKEKVYAEEQEFYNNLNQFQIKKLSLERQYDCANLEFEHNSRKLEKLQKMNVFSDIFYISHYSEPNGEGSIATINGLRLGRLPSQKVNWAEINAAWGMTVLLLDVLTEKLDFHSSSYQLKPFGSQSFIIRFDRDPNGNQVKPTKLDLFSSGELKIFMNRRFDQGMVAFLDYLHQFGDFCAAKTPSAVLPYAIENDRIGGKCIRLAFNQDENWTRALKFVLTDIKFLEAYVSSQDKQSNF
Consider B4, for which the binding entry in experiment [1] is “binds”.
